This assay addresses RNF43-BirA*-HA fusion protein (human) (UniProt Q68DV7). Put plainly: proximity labelling.

Amino acid sequences for entries named in this document (tags omitted). Residues count along the entry.
UniProt Q68DV7, residues 24-783: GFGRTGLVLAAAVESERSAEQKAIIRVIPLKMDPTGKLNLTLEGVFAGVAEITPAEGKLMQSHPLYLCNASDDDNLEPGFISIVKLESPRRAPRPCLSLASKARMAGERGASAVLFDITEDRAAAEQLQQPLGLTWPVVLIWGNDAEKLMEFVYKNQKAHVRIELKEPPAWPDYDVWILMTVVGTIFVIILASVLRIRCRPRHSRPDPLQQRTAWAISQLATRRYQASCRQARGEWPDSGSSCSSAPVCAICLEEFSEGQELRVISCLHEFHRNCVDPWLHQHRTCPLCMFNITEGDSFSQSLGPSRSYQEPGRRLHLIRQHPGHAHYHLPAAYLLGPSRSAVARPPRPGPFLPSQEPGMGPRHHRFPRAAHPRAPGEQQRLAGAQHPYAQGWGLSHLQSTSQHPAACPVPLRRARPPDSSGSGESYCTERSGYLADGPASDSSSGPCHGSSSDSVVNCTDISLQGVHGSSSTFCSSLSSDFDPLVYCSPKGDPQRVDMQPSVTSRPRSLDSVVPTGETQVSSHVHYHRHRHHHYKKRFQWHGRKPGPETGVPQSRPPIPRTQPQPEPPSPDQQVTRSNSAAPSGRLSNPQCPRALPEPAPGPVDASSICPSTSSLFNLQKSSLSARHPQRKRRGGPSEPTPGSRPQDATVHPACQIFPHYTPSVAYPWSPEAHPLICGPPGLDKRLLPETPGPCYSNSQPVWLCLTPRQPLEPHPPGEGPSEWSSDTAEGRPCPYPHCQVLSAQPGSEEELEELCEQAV
UniProt O15169: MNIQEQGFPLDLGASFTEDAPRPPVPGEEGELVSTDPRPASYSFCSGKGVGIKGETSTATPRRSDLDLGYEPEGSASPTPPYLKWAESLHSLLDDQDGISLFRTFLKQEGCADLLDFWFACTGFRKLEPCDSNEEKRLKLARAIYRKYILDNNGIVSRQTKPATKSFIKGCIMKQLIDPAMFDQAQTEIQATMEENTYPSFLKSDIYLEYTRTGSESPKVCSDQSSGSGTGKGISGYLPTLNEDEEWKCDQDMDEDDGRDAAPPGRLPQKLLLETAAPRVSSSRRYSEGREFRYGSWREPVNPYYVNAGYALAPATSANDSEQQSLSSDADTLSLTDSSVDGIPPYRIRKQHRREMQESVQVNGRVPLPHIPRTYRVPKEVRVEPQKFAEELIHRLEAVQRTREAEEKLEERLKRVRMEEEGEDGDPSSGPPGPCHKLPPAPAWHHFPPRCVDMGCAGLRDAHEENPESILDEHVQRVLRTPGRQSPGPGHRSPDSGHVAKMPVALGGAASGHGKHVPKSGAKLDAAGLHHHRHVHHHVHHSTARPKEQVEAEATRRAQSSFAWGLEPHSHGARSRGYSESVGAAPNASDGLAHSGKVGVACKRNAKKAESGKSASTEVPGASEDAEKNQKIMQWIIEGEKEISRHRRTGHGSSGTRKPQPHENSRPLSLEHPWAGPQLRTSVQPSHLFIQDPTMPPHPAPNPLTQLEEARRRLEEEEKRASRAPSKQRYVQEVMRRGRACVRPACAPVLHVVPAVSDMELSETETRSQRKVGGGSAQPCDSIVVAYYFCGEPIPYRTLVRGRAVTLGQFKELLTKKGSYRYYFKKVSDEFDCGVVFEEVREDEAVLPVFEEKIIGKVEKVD
UniProt P49674: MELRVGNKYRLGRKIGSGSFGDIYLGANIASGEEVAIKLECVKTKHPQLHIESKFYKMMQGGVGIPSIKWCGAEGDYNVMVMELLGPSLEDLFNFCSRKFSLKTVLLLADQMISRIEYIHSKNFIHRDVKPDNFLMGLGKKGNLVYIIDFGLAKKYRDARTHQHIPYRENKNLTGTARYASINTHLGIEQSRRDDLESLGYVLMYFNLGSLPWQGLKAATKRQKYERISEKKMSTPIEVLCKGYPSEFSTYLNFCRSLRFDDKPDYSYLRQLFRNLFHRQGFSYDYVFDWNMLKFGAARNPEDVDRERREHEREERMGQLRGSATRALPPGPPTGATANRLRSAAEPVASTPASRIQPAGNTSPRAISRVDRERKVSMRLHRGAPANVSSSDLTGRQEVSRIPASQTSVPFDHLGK

Results are given in words; binding and its absence hold for the method and conditions named. In cells and extracts the contact can be indirect. These calls come from enrichment with a bait or labelling near it, and not all partners need be listed.

On to “Axin1, endogenous (from UniProt O15169 1-862)”, for which the binding entry is listed as “binds”.
The entry for “Casein kinase 1 epsilon, endogenous (from UniProt P49674 1-416) (enzyme)” is “binds”.

The values above are taken from article doi:10.1101/748574.
